Source: article doi:10.1101/2022.04.06.487319 (bioRxiv, 2022)
No constants are given. Whether binding was seen depends on the method and setting. Binding seen in cells or lysates may run through a third protein. Some binding calls cover weakened binding; strength is not graded here. Tags and fused reporters may be left off the sequences shown. One block for each binder: values may come before it.

Columns and labels:
Assay in all cases: co-IP
[1] = molecular target: T1, 3HA-Red1 (full length, Red1 1-827), pGAL1::3HA-RED1 (Saccharomyces cerevisiae) (UniProt P14291)
T1 sequence: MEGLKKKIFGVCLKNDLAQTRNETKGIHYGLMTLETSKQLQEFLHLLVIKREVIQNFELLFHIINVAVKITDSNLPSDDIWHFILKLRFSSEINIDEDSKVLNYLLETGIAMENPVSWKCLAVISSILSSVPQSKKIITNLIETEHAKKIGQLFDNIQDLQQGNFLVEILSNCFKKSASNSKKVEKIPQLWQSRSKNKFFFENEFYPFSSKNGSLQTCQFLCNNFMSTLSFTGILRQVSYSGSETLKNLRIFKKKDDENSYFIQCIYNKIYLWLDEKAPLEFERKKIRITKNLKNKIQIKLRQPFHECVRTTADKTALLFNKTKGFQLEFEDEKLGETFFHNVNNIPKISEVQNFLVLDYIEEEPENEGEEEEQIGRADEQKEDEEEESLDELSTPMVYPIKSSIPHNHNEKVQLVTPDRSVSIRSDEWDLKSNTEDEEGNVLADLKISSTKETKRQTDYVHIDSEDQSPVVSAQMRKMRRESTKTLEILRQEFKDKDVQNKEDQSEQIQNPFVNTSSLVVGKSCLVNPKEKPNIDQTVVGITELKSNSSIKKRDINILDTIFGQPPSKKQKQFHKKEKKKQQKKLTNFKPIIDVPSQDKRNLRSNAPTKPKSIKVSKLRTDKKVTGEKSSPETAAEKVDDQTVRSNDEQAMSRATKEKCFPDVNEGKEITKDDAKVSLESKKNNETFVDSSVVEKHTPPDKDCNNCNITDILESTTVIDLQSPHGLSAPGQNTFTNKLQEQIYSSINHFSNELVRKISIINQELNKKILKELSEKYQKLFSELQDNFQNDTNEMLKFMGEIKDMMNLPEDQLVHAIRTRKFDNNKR

[2] = molecular target: T2, 3HA-Red1^1-818 (Saccharomyces cerevisiae) (UniProt P14291)
T2 sequence: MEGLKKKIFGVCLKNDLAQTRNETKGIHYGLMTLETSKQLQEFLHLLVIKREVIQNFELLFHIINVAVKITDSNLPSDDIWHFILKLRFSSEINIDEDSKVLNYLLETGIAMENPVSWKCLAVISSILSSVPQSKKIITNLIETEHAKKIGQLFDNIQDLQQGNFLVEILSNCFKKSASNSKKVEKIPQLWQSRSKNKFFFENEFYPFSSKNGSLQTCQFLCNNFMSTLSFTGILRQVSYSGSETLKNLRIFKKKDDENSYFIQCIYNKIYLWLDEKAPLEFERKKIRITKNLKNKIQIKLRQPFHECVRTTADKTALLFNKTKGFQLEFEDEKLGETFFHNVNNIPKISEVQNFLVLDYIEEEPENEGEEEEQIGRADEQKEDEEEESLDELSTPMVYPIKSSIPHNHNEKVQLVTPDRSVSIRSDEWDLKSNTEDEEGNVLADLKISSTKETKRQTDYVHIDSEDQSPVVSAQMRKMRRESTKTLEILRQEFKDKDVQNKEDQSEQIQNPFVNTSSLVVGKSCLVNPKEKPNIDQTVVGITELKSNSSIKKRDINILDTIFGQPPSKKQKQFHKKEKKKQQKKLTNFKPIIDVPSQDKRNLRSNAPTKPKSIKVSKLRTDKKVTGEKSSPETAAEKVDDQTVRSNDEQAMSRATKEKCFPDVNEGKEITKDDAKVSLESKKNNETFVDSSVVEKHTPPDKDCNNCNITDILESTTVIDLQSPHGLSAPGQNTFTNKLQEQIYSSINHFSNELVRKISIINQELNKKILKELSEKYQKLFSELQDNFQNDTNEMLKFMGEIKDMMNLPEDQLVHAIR

[3] = molecular target: T3, 3HA-Red1^1-345 (Saccharomyces cerevisiae) (UniProt P14291)
T3 sequence: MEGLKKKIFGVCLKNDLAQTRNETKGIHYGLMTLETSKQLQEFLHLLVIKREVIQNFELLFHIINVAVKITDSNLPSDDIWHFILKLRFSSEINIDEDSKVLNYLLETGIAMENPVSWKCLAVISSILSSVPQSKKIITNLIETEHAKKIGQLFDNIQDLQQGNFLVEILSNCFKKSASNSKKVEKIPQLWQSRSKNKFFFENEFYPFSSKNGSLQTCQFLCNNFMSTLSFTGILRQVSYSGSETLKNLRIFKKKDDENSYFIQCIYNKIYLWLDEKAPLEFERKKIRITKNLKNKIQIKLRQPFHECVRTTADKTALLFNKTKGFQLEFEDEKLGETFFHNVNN

binding [1]: binds
binding [2]: binds
binding [3]: binds
B1: GFP-Mek1 (pGAL1::GFP-MEK1) (enzyme, UniProt P24719 1-497)
chain: MRPLYSCNLATKDDIEMAGGVAPAHLEVNVGGYNTEQTIPIVKHQLVKVGRNDKECQLVLTNPSISSVHCVFWCVFFDEDSIPMFYVKDCSLNGTYLNGLLLKRDKTYLLKHCDVIELSQGSEENDIKKTRLVFMINDDLQSSLDPKLLDQMGFLREVDQWEITNRIVGNGTFGHVLITHNSKERDEDVCYHPENYAVKIIKLKPNKFDKEARILLRLDHPNIIKVYHTFCDRNNHLYIFQDLIPGGDLFSYLAKGDCLTSMSETESLLIVFQILQALNYLHDQDIVHRDLKLDNILLCTPEPCTRIVLADFGIAKDLNSNKERMHTVVGTPEYCAPEVGFRANRKAYQSFSRAATLEQRGYDSKCDLWSLGVITHIMLTGISPFYGDGSERSIIQNAKIGKLNFKLKQWDIVSDNAKSFVKDLLQTDVVKRLNSKQGLKHIWIAKHLSQLERLYYKKILCNNEGPKLESINSDWKRKLPKSVIISQAIPKKKKVLE

binding [1]: binds
binding [2]: binds
binding [3]: no binding
B2: Hop1 (pGAL1::HOP1), untagged (protein, UniProt P20050 1-605)
chain: MSNKQLVKPKTETKTEITTEQSQKLLQTMLTMSFGCLAFLRGLFPDDIFVDQRFVPEKVEKNYNKQNTSQNNSIKIKTLIRGKSAQADLLLDWLEKGVFKSIRLKCLKALSLGIFLEDPTDLLENYIFSFDYDEENNVNINVNLSGNKKGSKNADPENETISLLDSRRMVQQLMRRFIIITQSLEPLPQKKFLTMRLMFNDNVDEDYQPELFKDATFDKRATLKVPTNLDNDAIDVGTLNTKHHKVALSVLSAATSSMEKAGNTNFIRVDPFDLILQQQEENKLEESVPTKPQNFVTSQTTNVLGNLLNSSQASIQPTQFVSNNPVTGICSCECGLEVPKAATVLKTCKSCRKTLHGICYGNFLHSSIEKCFTCIFGPSLDTKWSKFQDLMMIRKVFRFLVRKKKGFPASITELIDSFINVEDQNNEVKERVAFALFVFFLDETLCLDNGGKPSQTIRYVTSSVLVDVKGIVIPNTRKQLNVNHEYKWHFTTSSPKAESFYQEVLPNSRKQVESWLQDITNLRKVYSEALSPSSTLQELDLNSSLPTQDPIISGQKRRRYDLDEYLEEDKSSVVNDTIKAKDFDESVPAKIRKISVSKKTLKSNW
